Results from the supplement of paper PMC5949888.
Most values lie at the floor of the assay. Slopes are relative: functional sequences can read slightly below zero.

These substances were tested on Saccharomyces cerevisiae PS128 hsf1 delta, HSF1(1-493) fusion (assay: growth estimate (transactivation domain function in HSF1 fusion, heat-shock survival) (a.u. (slope of normalised read count over time)); higher = stronger growth at 37°C, i.e. more transactivation activity). Conditions: library: random library.

Substance | growth estimate
IQYLLNPLATSYEHMRLVIC | < -0.25
TWLSANTSRLRDTVRVWALE | < -0.25
EAELGSR | < -0.25
GSEGDCSLATREVGVLEQIR | -0.219
GTHLRVHCGGSEMRKTFSLV | < -0.25
YSVFVIIGSQSRWHNLSNCS | < -0.25
SDGLRFQLRSELGADSACSE | < -0.25
QGALGACAWLVVDTASYLAN | < -0.25
DQSDGMFSNAVEACRHLSEQ | < -0.25
CDGRDGVSVVVVFTVLRQCR | < -0.25
NRIGWLMNLPRVKVSLYSRM | < -0.25
RRQCLRLAVGVFSKSLTGSI | < -0.25
GPAFGVCVSSAASP | < -0.25
KYKPDWEYYWAGRNQVAALQ | < -0.25
GLMACWENVAHWLPKTCAVP | < -0.25
LTPEQLRLGAGLRYAAFIVD | < -0.25
MPVDPILKKHRF | < -0.25
FVIDFDSFMSAYKRECHISF | < -0.25
VIVSGD | -0.231
QRGRPTDLPWTPSYHYMAER | < -0.25
PDTA | < -0.25
SDDRKDSRCEQLRFRVRVHL | < -0.25
APVQQGLRVCFRLILCAEAI | < -0.25
IAQLGGIREGASYLGLSRHA | < -0.25

Two successive records already listed:
Substance | growth estimate
TWLSANTSRLRDTVRVWALE | < -0.25
EAELGSR | < -0.25

Additional records follow:

Substance | growth estimate
GCHDRP | < -0.25
HHVGPASPAILTVQVKIVGN | < -0.25
FSVLD | < -0.25
ETRGLSI | < -0.25
VNLCKEYQANIGPTMGNEVS | < -0.25
IPLLPSSREPSGSFTL | < -0.25
LSGGREVRLLDQYCCEV | < -0.25
KAVHLSGQYQREERYAQILP | < -0.25
LSNLVKSLASADLKALSCRS | < -0.25
SYATYPTVPWLL | -0.119
LKAGSVTAIAHGGQCGSKQR | < -0.25
GLISRAFTSRPNGAFYPVRL | < -0.25
AEKAKPLSLNAGPNPCQRSI | < -0.25
FIDAGSIAYGCSGQ | < -0.25
IIYECSFPQRTDDVGIGTYR | < -0.25
SHP | < -0.25
LVQGPENISLGVGFHRGNRK | < -0.25
EVVIDYFHGELMDLSRQVQL | 0.213
GRIIPISDAERWL | < -0.25
SVM | < -0.25
VLKDVGRQRLGLWLGRA | < -0.25
GAGSACLELSGDRAYAVELM | < -0.25
ASATDAIARAGADSLVAVPC | < -0.25
AIAES | < -0.25

Substance | growth estimate
YSSRM | < -0.25
RDKPMMV | < -0.25
QRHEKACRDQPCTRSAGLVP | < -0.25
TAGRCIGMVPASCCGVGSPG | < -0.25
RWGFAPRAWRAGSAIDIITS | < -0.25
ETIH | < -0.25
SRW | < -0.25
RHGIEHLALWSCLTVVQEIT | < -0.25
RILVRRLGDCMARCHQGKGL | < -0.25
YSTHRRSR | -0.0135
TGN | < -0.25
GTPLTKPAIRAKRTGSGQYN | 0.218
SLASPTGVWSRLNCIRYNAA | < -0.25
WQIPGTRGCVIAGC | < -0.25
QSQRGQSNRVSKLEEVVASG | < -0.25
APLFVVFDWNVGDMDCDEIR | -0.127
YTAPNSTGISSGRGFRSGGE | -0.239
PDYKRRFTGSSLLRGLQTGS | -0.25
QAMSNWEH | < -0.25
SAELCRRCFYYPTRKKSHAA | < -0.25
LSTV | < -0.25
RSRIHFGL | < -0.25

Fetched one by one from the entries so far (two):
Substance | growth estimate
GTPLTKPAIRAKRTGSGQYN | 0.218
SHP | < -0.25
